{"source": "paper PMC8539346", "about": "(Molecules, 2021)", "assay": "general procedure: Fmoc solid-phase peptide synthesis; 2-Chlorotrityl chloride resin; DIPCDI/HOBt; TBTU/DIPEA (solution couplings)", "details": "late stage modification step", "note": "HELM strings list residues between dots; [ac] is acetyl, [am] amide, other brackets name non-standard units."}
{"substance": "PEPTIDE1{R.G.D.[dF].K}|PEPTIDE2{R.G.D.[D-Phe4I].K}|PEPTIDE3{E}$PEPTIDE1,PEPTIDE1,1:R1-5:R2|PEPTIDE2,PEPTIDE2,1:R1-5:R2|PEPTIDE3,PEPTIDE1,1:R3-5:R3|PEPTIDE3,PEPTIDE2,1:R2-5:R3$$$V2.0", "values": [{"measurement": "step yield", "result": 71, "unit": "%"}]}
